Experimental data published in PubChem BioAssay AID2685 (National Center for Advancing Translational Sciences (NCATS), 2010).
Some of the results follow. These are further read-outs of the screen, such as a control signal, another cell line or another target. No call is given for them. The list favours compounds with an active or inconclusive main result. The note in brackets gives the kind of curve behind each potency; many fits are weak.

Test: qHTS Assay for Lipid Storage Modulators in Drosophila S3 Cells;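 as to cell number change: cells counted by Cell Tracker Red CMTPX staining in the red channel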
Settings: BODIPY lipid droplet fluorescence, 18-24 h; for cell number change: measured here: cell count max response, cells fed with added oleic acid
Summary of the method: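 Drosophila S3 cells loaded with oleic acid (400 uM, as added) and compounds at several concentrations; lipid droplets imaged by 488-nm laser-scanning cytometry, 500–530 nm intensity and object ratio to cell channel. Percent activity normalized to 20 uM Triacsin C.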

[1] = measured here: lipid fluorescence (Fed channel) AC50, cells fed with added oleic acid
[2] = measured here: cell number channel AC50, cells fed with added oleic acid

Row | Structure (SMILES) | cell number change [%] | AC50 [1] | AC50 [2]
1 | Cc1cc(Br)ccc1NC(=O)CN1C(=O)C2CC=CCC2C1=O (centres undefined) | -0.699 | 6510 nM [falling, partial curve, poor fit] | –
2 | CCn1ncc([C@@H]2C[C@H]3CN(Cc4cccc(Cl)c4)C(=O)[C@]34CCCN24)c1C | -11.8 | 2910 nM [falling, single point] | –
3 | O=c1c2ccccc2[nH]c(=S)n1CCc1ccccc1 | -16.7 | – | 651 nM [falling, full curve, poor fit]
4 | COc1cc(NS(=O)(=O)c2ccc(NC(=O)COc3ccccc3C)cc2)nc(OC)n1 | – | 73.1 nM [falling, full curve, poor fit] | 651 nM [falling, partial curve]
5 | CC(C)n1c(N2CCCC2)nc2c1c(=O)[nH]c(=O)n2C | – | 6510 nM [rising, single point] | –
6 | CC1CN(C(=O)CN2C(=O)c3ccccc3S2(=O)=O)CC(C)O1 (centres undefined) | -4.57 | 5.17 nM [rising, full curve, poor fit] | –
7 | CN1C[C@H](C(=O)N[C@]2(C)O[C@@]3(O)[C@@H]4CCCN4C(=O)[C@H](Cc4ccccc4)N3C2=O)CC2c3cccc4[nH]cc(c34)C[C@H]21 (some centres undefined) | 8.8 | 1160 nM [rising, partial curve] | –
8 | C/C(=N\NC(=O)c1ccc(-c2ccccc2)cc1)c1cccc(N)c1 | -1.1 | 130 nM [falling, full curve, poor fit] | –
9 | COc1ccc(NC(=O)C(=O)NCC2CCCN2S(=O)(=O)c2ccc(C)cc2)cc1 (centres undefined) | -39.2 | 16400 nM [falling, single point] | 16400 nM [falling, partial curve]
10 | Cc1ccccc1CNc1nnnn1C | 9.49 | 7.31 nM [rising, full curve, poor fit] | –
11 | O=C(O)c1ccc(NS(=O)(=O)c2ccc(NC(=O)c3ccccc3Cl)cc2)cc1 | -1.31 | 29100 nM [rising, single point] | –
12 | O=C(NNc1cccc(Cl)n1)c1cccnc1Cl | -21.7 | 16400 nM [rising, partial curve, poor fit] | 4.61 nM [falling, full curve, poor fit]
13 | CCOC(=O)c1cc(C(=O)OCC)cc(-n2c(C)cc(C(=O)CN3CCOCC3)c2C)c1 | -1.29 | 16400 nM [rising, single point] | –
14 | O=C(CSc1nnc(Cc2cc(=O)[nH]c(=O)[nH]2)n1-c1ccccc1)N1CCCC1 | 8.65 | – | –
15 | COC(=O)CSc1nnc2n1C(C)(C)Cc1ccccc1-2 | -4.83 | – | –
